Source: patent US20240009318A1
Results are given in words; binding and its absence hold for the method and conditions named. Some results given as binding are weak or reduced against the parent protein; the word gives no strength.

Columns and labels:
[1] = target: human EGFR protein (human) (UniProt P00533); experiment: ELISA
[2] = target: human EGFR protein (human) (UniProt P00533); experiment: ELISA of binding to EGFR, 5-fold dilutions from 10 ug/mL, detection with HRP goat anti-human IgG Fc, OD 450/650 nm

Binder | binding [1] | binding [2]
BB0500-2gf (antibody, V domains shown) VH: QVQLQESGPGLVKPSETLSLTCTVSGGSVSSGDYYWTWIRQSPGKGLEWIGHIYYSGNTNYNPSLKSRLTISIDTSKTQFSLKLSSVTAADTAIYYCVRDRVAGAFDIWGQGTMVTVSS VL: DIQMTQSPSSLSASVGDRVTITCQASQDISNYLNWYQQKPGKAPKLLIYAASNLETGVPSRFSGSGSGTDFTFTISSLQPEDIATYFCQHFDHLPLAFGGGTKVEIKR | binds | binds
BB0500-2g (antibody, V domains shown) VH: QVQLQESGPGLVKPSETLSLTCTVSGGSVSSGDYYWTWIRQSPGKGLEWIGHIYYSGNTNYNPSLKSRLTISIDTSKTQFSLKLSSVTAADTAIYYCVRDRVAGAFDIWGQGTMVTVSS VL: DIQMTQSPSSLSASVGDRVTITCQASQDISNALNWYQQKPGKAPKLLIYDASNLETGVPSRFSGSGSGTDFTFTISSLQPEDIATYFCQHFDHLPLAFGGGTKVEIKR | binds | binds
